The list shows a part of the results, in another mix than the full data. Activity calls are given as the source filed them. Calls follow the shape of the dose curve; as a rule, active = well fitted curve in the direction sought with a large enough effect; inconclusive = small, poorly fitted or top-dose-only effect; inactive = flat fitted curve, though single readings scatter.

The values below come from PubChem BioAssay AID603 (National Center for Advancing Translational Sciences (NCATS), 2007).
Potency is read from the fitted curve at half-maximal effect.

The subject of this experiment is DNA polymerase III holoenzyme (E. coli). Kind of experiment: qHTS Assay for Inhibitors of DNA Polymerase III Holoenzyme System. The conditions noted are these: reconstituted DNA polymerase III holoenzyme replication, biochemical. On the procedure: NIH Molecular Libraries Screening Centers Network [MLSCN]
NIH Chemical Genomics Center [NCGC]
Assay Provider: Charles McHenry, University of Colorado
E. coli DNA polymerase III holoenzyme complex was assayed for DNA production by fluorescent detection of the double-stranded DNA product with PicoGreen dye. The holoenzyme complex was reconstituted from the following purified protein components: DNA Polymerase III, beta subunit processivity factor, SSB single-stranded DNA binding protein, and Primase. Single-stranded, circular M13Gori was used as a substrate with dNTPs and NTPs also supplied to the substrate reagent. Compounds from the NCGC collection were incubated with the holoenzyme mixture for 15 min at room temperature to allow binding to occur, and then the reaction was started by the addition of substrate. […] Reaction progress was measured in a ViewLux CCD imager in fluorescence intensity mode by using 480 nm excitation and 540 nm emission filter set. […]
Three uL of holoenzyme mixture were dispensed to 1536-well Greiner black solid bottom plates. […] After room temperature incubation for 35 minutes, 1 uL of PicoGreen solution was added to each well and the plates were read 480 nm excitation and 540 nm emission using ViewLux (Perkin-Elmer) High-throughput CCD imager and fluorescence protocol settings. […]
Background: In qHTS, concentration-response curves come from the screen itself.
For the compound `COc1ccc2c(c1)c1c(C)c3cnccc3c(C)c1n2CCCN`, the Potency is active: 794 nM.
